Test results published in patent publication US9416130B2, “4-(8-methoxy-1-((1-methoxypropan-2-yl)-2-(tetrahydro-2H-pyran-4-yl)-1 H-imidazo[4,5-C]quinolin-7-yl)-3,5-dimethylisoxazole and its use as bromodomain inhibitor” (GlaxoSmithKline LLC, priority 2011, dated 2016).
Some entries share one result that the patent states for a list of compounds. Some compounds share one range, which may span the group rather than tell each member.

Columns and labels:
Settings in all cases: acetylated histone peptide
BRD3 (1-435) = biological target: T1, BRD3 (1-435) (Homo sapiens, UniProt Q15059); assay: TR-FRET bromodomain binding assay (BRD3)
T1 construct: BRD3 (1-435); made in house; host or cells: E. coli (pET15b vector)

BRD4 (1-477) = biological target: T2, BRD4 (1-477) (Homo sapiens, UniProt O60885); assay: TR-FRET bromodomain binding assay (BRD4)
T2 construct: BRD4 (1-477); made in house; host or cells: E. coli (pET15b vector)

BRD2 (1-473) = biological target: T3, BRD2 (1-473) (Homo sapiens, UniProt P25440); assay: TR-FRET bromodomain binding assay (BRD2)
T3 construct: BRD2 (1-473); made in house; host or cells: E. coli (pET15b vector)

Measured: pIC50

COCC(C)n1c(C2CCOCC2)nc2cnc3cc(-c4c(C)noc4C)c(OC)cc3c21 (stereo not drawn) [Example 1, 4-(8-methoxy-1-(1-methoxypropan-2-yl)-2-(tetrahydro-2H-pyran-4-yl)-1H-imidazo[4,5-c]quinolin-7-yl)-3,5-dimethylisoxazole]
6.5-7.5: all assays above

COC[C@@H](C)n1c(C2CCOCC2)nc2cnc3cc(-c4c(C)noc4C)c(OC)cc3c21 [Example 2, 4-(8-methoxy-1-((R)-1-methoxypropan-2-yl)-2-(tetrahydro-2H-pyran-4-yl)-1H-imidazo[4,5-c]quinolin-7-yl)-3,5-dimethylisoxazole]
6.5-7.5: all assays above

COC[C@H](C)n1c(C2CCOCC2)nc2cnc3cc(-c4c(C)noc4C)c(OC)cc3c21 [Example 3, 4-(8-methoxy-1-((S)-1-methoxypropan-2-yl)-2-(tetrahydro-2H-pyran-4-yl)-1H-imidazo[4,5-c]quinolin-7-yl)-3,5-dimethylisoxazole]
6.5-7.5: all assays above
